# Source: PubChem BioAssay AID1671195 (Yale University, 2021)
# Purpose: 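Regulators of LDL receptor activity judged by labelled LDL uptake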 (primary screen)
# Cell system: human Huh7 hepatoma cells
# Knock-down reagent: siRNA pool against human genes, 18 nM
# Timing: about 2 to 2.5 days of knockdown, then 8 h LDL uptake
# Treatment: DiI-labelled LDL at 30 µg/ml for 8 h, in lipoprotein-deficient serum medium
# Read-out: 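Fluorescent LDL signal imaged in cells, scaled to the plate median, robust z-score for each replicate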
# Direction: robust z-score: higher = more LDL uptake after knockdown
# Rule for the call: 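a gene counts as active if at least two replicate z-scores exceed ±2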
# The deposit covers about 22,000 reagents; below is a random part of them. About 1,510 of them (6.9%) count as active. 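Active includes knockdowns raising or lowering LDL uptake; positive z-scores mean more uptake, negative mean less.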 A number with no mark means an inactive call. The numbers tell different reagents against one gene apart.
Gene,reagent,"robust z-score, replicate 1","robust z-score, replicate 2","robust z-score, replicate 3"
EXOSC1,1,0.056,-2.03,-0.485
FNDC7,1,-0.407,-0.514,-0.447
AIF1L,1,0.8,0.604,-0.286
NDEL1,1,-0.316,0.227,-0.0284
ZSWIM9,1,-0.639,-0.842,-0.921
TSBP1-AS1,1,-1.29,-1.5,-1.2
SHISA5,1,-0.56,-1.37,-0.82
MAP1S,1,-0.585,-1.45,0.636
LOC388893 (retired record),1,-2.09 (active),-2.16,-2.05
RNASE1,1,-0.0926,0.157,0.208
ST8SIA4,1,-0.686,-0.0973,-0.453
H4C16,1,1.07,0.97,-0.211
LOC392582 (retired record),1,-1.08,-0.131,-0.399
LOC286404 (retired record),1,-0.00747,-0.197,-0.0427
LINC02898,1,0.0328,0.238,-0.0747
LOC128629 (retired record),1,-0.162,-0.0573,0.406
GPR155,1,-0.399,-0.365,-0.459
DNM1P9,1,1.33,1.73,1.8
ANKRD16,1,0.772,-1.01,-0.0848
LOC441075 (retired record),1,-0.744,-0.598,-0.458
PRPF4,1,4.07 (active),1.66,2.45
REXO5,1,-0.613,-0.649,-0.071
UROS,1,0.718,0.697,0.931
DDX17,1,0.177,1.78,1.6
LINC02915,1,0.206,0.436,0.108
LOC343484 (retired record),1,-0.603,-0.281,-0.369
SLC5A5,1,-2.78 (active),-2.8,-2.55
FMO9P,1,0.824,0.265,0.548
TMEM184B,1,0.856,1.7,-0.165
ZNF660,1,-1.86,-1.64,-1.11
ZNF282,1,-1.27,-1.6,-1.92
FREM1,1,0.362,1.69,0.891
SLC26A6,1,-0.454,-0.546,-0.0307
ODF2,1,0.113,0.996,0.0154
TMEM132E-DT,1,1.19,1.34,0.909
DGKH,1,0.463,-0.0194,0.142
APLF,1,-0.811,-1.53,-0.992
SLC5A12,1,0.332,0.59,0.931
GRM8,1,0.804,2.49,1.71
LOC343295 (retired record),1,2.58 (active),2.41,2.85
CAMP,1,1.41,1.66,1.1
LOC388641 (retired record),1,-0.902,-0.414,-0.696
SLC30A4,1,1.6,1.55,1.18
MAP3K13,1,-0.158,0.615,-0.507
FBXO31,1,0.196,-0.0187,0.00922
WDR90,1,-1.13,-1.71,-1.28
WDR90,2,-1.21,-1.92,-1.66
